Assay results reported in patent US20180177778A1, “Methods for Treating HCV” (priority 2015, published 2018).
Some results were stated once for a whole list of compounds, not compound by compound.

Assay: Population pharmacokinetics in HCV GT1 subjects with CKD Stage 4 or 5 (Example 17)
Assay type: in vivo, human
Conditions: steady-state, population pharmacokinetic models
Method: Pharmacokinetic data from a Phase 2 study (N=38) in subjects with normal or mild renal impairment (subjects “without kidney disease”) were combined with preliminary data from a Phase 3b study in subjects with CKD Stage 4 (N=5) or Stage 5 on hemodialysis (N=14). In both studies subjects received OBV/PTV/r 25/150/100 mg QD and DSV 250 mg BID±RBV for 12 weeks. Pharmacokinetic parameters and steady-state exposures of the 3-DAA regimen were estimated using population pharmacokinetic models.

Which “difference in exposures between subjects without kidney disease and CKD Stage 4” value does the source give for Cc1cnc(C(=O)N[C@H]2CCCCC/C=C\[C@@H]3C[C@@]3(C(=O)NS(=O)(=O)C3CC3)NC(=O)[C@@H]3C[C@@H](Oc4nc5ccccc5c5ccccc45)CN3C2=O)cn1 [Compound 1, (2R,6S,13aS,14aR,16aS,Z)—N-(cyclopropylsulfonyl)-6-(5-methylpyrazine-2-carboxamido)-5,16-dioxo-2-(phenanthridin-6-yloxy)-1,2,3,5,6,7,8,9,10,11,13a,14,14a,15,16,16a-hexadecahydrocyclopropa[e]pyrrolo[1,2-a][1,4]diazacyclopentadecine-14a-carboxamide] here?
Its value is less than 22%.

And the “difference in exposures between subjects without kidney disease and CKD Stage 5” value?
The value was less than 20%.

For COc1c(-c2ccc3cc(NS(C)(=O)=O)ccc3c2)cc(-n2ccc(=O)[nH]c2=O)cc1C(C)(C)C [Compound 3, N-(6-(3-tert-butyl-5-(2,4-dioxo-3,4-dihydropyrimidin-1(2H)-yl)-2-methoxyphenyl)naphthalen-2-yl)methanesulfonamide], which “difference in exposures between subjects without kidney disease and CKD Stage 4” value is on record?
The value was less than 22%.
